Our source for the binding values is article PMC9247460.

By UniProt entry, the sequences of proteins in these tests, tags left out. Where a name states a change or a piece, a line headed by the entry shows the natural chain unless it says otherwise.
UniProt P31946: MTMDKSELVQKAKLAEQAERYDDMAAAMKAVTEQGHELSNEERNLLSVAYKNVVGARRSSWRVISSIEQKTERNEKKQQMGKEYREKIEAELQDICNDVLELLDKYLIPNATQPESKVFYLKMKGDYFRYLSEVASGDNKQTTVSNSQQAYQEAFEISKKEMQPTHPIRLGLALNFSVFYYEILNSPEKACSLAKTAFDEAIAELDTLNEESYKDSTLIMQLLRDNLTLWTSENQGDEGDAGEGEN
UniProt Q09472: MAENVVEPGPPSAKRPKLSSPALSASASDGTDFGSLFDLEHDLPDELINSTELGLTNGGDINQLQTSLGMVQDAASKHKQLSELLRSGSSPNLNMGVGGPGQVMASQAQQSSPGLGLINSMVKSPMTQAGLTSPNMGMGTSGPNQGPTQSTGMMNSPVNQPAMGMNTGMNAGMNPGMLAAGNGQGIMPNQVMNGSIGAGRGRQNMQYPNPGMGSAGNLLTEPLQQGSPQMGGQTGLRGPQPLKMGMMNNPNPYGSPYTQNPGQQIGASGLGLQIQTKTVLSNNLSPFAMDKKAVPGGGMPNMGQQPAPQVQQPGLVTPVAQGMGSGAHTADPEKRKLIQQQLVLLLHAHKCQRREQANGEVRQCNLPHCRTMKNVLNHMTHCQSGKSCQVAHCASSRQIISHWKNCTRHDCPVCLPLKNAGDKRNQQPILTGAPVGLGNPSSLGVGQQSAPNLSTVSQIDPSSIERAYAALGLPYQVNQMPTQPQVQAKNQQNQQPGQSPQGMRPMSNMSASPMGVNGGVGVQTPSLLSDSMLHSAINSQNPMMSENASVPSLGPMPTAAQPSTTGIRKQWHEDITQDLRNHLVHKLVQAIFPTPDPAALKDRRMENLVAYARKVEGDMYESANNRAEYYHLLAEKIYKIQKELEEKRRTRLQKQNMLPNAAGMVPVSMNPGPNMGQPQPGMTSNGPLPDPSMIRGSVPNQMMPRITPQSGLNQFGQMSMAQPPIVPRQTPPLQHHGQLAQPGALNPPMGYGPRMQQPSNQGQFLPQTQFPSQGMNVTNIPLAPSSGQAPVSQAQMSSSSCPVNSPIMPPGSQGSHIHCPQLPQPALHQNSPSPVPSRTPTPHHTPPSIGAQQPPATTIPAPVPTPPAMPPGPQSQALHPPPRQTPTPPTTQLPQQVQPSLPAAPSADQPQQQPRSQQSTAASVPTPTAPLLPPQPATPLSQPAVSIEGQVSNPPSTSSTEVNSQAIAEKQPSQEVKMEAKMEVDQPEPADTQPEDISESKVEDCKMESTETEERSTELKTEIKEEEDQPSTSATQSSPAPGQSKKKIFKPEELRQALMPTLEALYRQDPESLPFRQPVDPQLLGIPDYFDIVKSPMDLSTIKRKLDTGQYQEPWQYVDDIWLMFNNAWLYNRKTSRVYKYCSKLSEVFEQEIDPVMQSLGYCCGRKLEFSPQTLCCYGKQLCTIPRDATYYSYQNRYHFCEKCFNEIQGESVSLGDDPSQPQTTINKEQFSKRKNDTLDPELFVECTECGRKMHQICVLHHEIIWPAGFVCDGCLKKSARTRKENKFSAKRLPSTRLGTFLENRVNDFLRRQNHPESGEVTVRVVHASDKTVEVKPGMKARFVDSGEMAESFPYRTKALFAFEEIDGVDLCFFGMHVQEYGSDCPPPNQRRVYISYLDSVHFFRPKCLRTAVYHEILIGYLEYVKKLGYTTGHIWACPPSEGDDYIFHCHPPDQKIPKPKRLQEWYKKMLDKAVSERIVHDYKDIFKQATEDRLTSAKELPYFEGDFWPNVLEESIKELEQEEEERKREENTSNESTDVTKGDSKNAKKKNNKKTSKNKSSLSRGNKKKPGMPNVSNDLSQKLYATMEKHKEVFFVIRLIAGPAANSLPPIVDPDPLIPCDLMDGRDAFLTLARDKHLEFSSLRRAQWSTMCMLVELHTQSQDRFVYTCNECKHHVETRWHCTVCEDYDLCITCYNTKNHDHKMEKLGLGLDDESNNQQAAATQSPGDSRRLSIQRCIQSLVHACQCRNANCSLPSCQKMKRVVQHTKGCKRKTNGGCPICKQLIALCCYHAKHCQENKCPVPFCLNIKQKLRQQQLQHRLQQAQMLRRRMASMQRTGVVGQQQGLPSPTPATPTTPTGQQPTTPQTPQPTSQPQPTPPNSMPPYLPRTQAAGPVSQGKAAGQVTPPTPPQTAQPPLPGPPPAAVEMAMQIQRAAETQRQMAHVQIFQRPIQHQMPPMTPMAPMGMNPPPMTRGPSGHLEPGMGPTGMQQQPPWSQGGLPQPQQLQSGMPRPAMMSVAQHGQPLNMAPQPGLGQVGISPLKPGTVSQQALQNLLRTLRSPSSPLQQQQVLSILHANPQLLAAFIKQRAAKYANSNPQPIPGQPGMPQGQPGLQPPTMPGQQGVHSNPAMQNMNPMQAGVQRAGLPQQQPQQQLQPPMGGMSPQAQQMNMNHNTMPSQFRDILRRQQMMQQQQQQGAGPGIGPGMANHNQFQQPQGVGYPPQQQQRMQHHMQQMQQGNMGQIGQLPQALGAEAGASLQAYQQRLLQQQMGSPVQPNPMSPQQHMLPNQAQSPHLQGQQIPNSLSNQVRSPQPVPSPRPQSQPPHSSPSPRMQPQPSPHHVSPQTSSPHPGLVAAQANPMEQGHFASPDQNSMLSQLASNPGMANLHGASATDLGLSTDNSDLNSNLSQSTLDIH

The target of this experiment is 14-3-3β/α (YWHAB) (human (endogenous in U87MG)) (UniProt P31946). As to the kind of experiment: co-IP; Co-IP of 14-3-3β/α followed by western blot for EP300; endogenous proteins; cell line not named for this panel. (In general: In western blotting, separated proteins are transferred to a membrane and probed.)

No constants are given. Whether binding was seen depends on the method and setting. Binding seen in cells or lysates may run through a third protein. Some results given as binding are weak or reduced against the parent protein; the word gives no strength.

With “E1A binding protein p300 (EP300) (from UniProt Q09472 1-2414)”, the binding result is reported as “binds”.
